Laboratory results: PubChem BioAssay AID1259308 (NCATS, 2017)
Shown is one part, drawn at random, of about 59,000 reagents tested. About 1,510 of all reagents (2.6%) count as active. 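Calls use total luciferase alone and ignore viability, so some active siRNAs may act by altering cell number.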 Entries without a mark were called inactive. Reagents against one gene are numbered here. Not all columns of the deposit are shown. Reagent sequences are not shown.

- Assay: 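Knock-downs that increase output of a recombinant reporter protein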 (primary screen)
- Cells: human HEK293 embryonic kidney cells stably expressing firefly luciferase (HEK-CMV-Luc2-Hygro)
- Knock-down reagent: single siRNA against human genes, 0.8 pmol siRNA per well
- Duration: 72 h
- Detection: 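Reporter luminescence and viable-cell signal on separate replicate plates, given as percent of non-targeting control and median/MAD z-scores, plus per-cell luciferase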
- Reading the numbers: total luciferase, z-score: higher = more reporter protein produced
- Active means: 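An siRNA counts as active if its total luciferase robust z-score exceeds 3; genes with two or more such siRNAs out of three were retested with fresh siRNAs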
- Meaning of the calls: active = raised luciferase; inactive = no rise

ACBD6 #1 — total luciferase, z-score: -1.18
ACBD6 #2 — total luciferase, z-score: 0.407
ACBD6 #3 — total luciferase, z-score: -0.755
ZNF519 #1 — total luciferase, z-score: -1.35
ZNF519 #2 — total luciferase, z-score: 1.58
ZNF519 #3 — total luciferase, z-score: 6.28 (active)
POU2AF2 #1 — total luciferase, z-score: 0.155
POU2AF2 #2 — total luciferase, z-score: 0.665
POU2AF2 #3 — total luciferase, z-score: -1.05
PTPN6 #1 — total luciferase, z-score: -0.237
PTPN6 #2 — total luciferase, z-score: -1.47
PTPN6 #3 — total luciferase, z-score: 2.73
FAM107A #1 — total luciferase, z-score: -1.88
FAM107A #2 — total luciferase, z-score: -0.424
FAM107A #3 — total luciferase, z-score: 0.0435
ACAD11 #1 — total luciferase, z-score: 1.19
ACAD11 #2 — total luciferase, z-score: -0.0222
ACAD11 #3 — total luciferase, z-score: -0.536
LOC400682 #1 — total luciferase, z-score: -0.888
LOC400682 #2 — total luciferase, z-score: 3.8 (active)
LOC400682 #3 — total luciferase, z-score: 1.65
CISD2 #1 — total luciferase, z-score: -0.112
CISD2 #2 — total luciferase, z-score: -1.44
CISD2 #3 — total luciferase, z-score: -0.812
PTGR2 #1 — total luciferase, z-score: 0.304
PTGR2 #2 — total luciferase, z-score: -0.293
PTGR2 #3 — total luciferase, z-score: -0.0736
GOLPH3L #1 — total luciferase, z-score: 0.00958
GOLPH3L #2 — total luciferase, z-score: -1.45
GOLPH3L #3 — total luciferase, z-score: -0.993
PRSS36 #1 — total luciferase, z-score: -1.82
PRSS36 #2 — total luciferase, z-score: 1.61
PRSS36 #3 — total luciferase, z-score: -0.399

Not a retest: 4 of the entries above.
FAM107A #3 — total luciferase, z-score: 0.0435
ACAD11 #1 — total luciferase, z-score: 1.19
ACAD11 #2 — total luciferase, z-score: -0.0222
ACAD11 #3 — total luciferase, z-score: -0.536
